# The other results are listed elsewhere or left out. Potency and affinity values are given separately.
# System: Pseudomonas aeruginosa
# Conditions: Concentration 20 uM; ASSAY_TEST Inhibition of Bacterial Growth; detection method Absorption (OD600); MEDIA CAMHB; plate type 384well; NBS; CORNING #3640; time 18 hr
row,Structure (SMILES),Inhibition [%]
1,Oc1nccc(SCc2ccc(Cl)cc2Cl)n1,4.81
2,CCOC(=O)c1nn(C)c2[nH]c(=O)n(C)c(=O)c12,4.41
3,O=C1NC(=O)C2(CCc3ccccc32)N1 (configuration not stated),6.91
4,O=C1NC(=O)C(Cc2ccccc2)(c2cccnc2)N1 (configuration not stated),4.41
5,Nc1ccc(OC(=O)Nc2ccc(O)cc2)cc1,-21.95
6,CC1=CC2(C)NC(=O)C(C)C12 (configuration not stated),5.83
7,Nc1c(Cl)ncnc1NCCO,6.69
8,CCc1nc(N)nc(N)c1-c1ccc(N(C)Cc2ccccc2)c([N+](=O)[O-])c1,4.08
9,CCOC(=O)c1c(C)oc(C)c(C(=O)OCC)c1=O,-4.12
10,Cc1cc(-n2cnc3c(O)ncnc32)ccc1N,9.71
11,Cc1cc(C)n(C(=N)NC(=O)c2ccc([N+](=O)[O-])cc2)n1,-2
12,Cc1c(Cl)ccc2c(C(=O)O)cc(-c3ccccc3)nc12,4.75
13,O=C1OC(CN(Cc2ccccc2)Cc2ccccc2)CN1/N=C/c1ccc([N+](=O)[O-])o1 (configuration not stated),17.78
14,NC(S)=Nc1cccc(Cl)c1,-3.82
15,CC(OC(=O)Nc1cccc(Cl)c1)C(=O)O (configuration not stated),20.28
16,C=CCN=C(S)Nc1cccc([N+](=O)[O-])c1,-12.2
17,CCCCNc1cc(Cl)nc(N)n1,5.98
18,Clc1ccccc1-c1nc2ccccc2[nH]1,9.03
19,CCOC(=O)C(Cc1ccc(O)cc1)Nc1nc2ccccc2o1 (configuration not stated),17.83
20,O=C(O)c1cccc2c1C(=O)c1cccc3snc-2c13,-6.87
21,C#CC(C)OCC1CNC(=S)O1 (configuration not stated),12.09
22,CC1(CN2CCCC2)CCC(NC(=O)C(c2ccccc2)c2ccccc2)C(C)(C)O1 (configuration not stated),21.96
23,CC(=O)OC1C=CCC2C(=O)c3cccc(O)c3C(O)C12 (configuration not stated),7.59

# Of the compounds above, these have a Cl atom.
row,Structure (SMILES),Inhibition [%]
1,Oc1nccc(SCc2ccc(Cl)cc2Cl)n1,4.81
7,Nc1c(Cl)ncnc1NCCO,6.69
12,Cc1c(Cl)ccc2c(C(=O)O)cc(-c3ccccc3)nc12,4.75
14,NC(S)=Nc1cccc(Cl)c1,-3.82
15,CC(OC(=O)Nc1cccc(Cl)c1)C(=O)O (configuration not stated),20.28
17,CCCCNc1cc(Cl)nc(N)n1,5.98
18,Clc1ccccc1-c1nc2ccccc2[nH]1,9.03

# Continuation.

row,Structure (SMILES),Inhibition [%]
1,CC1(C)CC(=O)C(CC(=O)c2ccccc2)=C(NNC(=N)N)C1,12.13
2,Cn1cnc([N+](=O)[O-])c1N=C(N)N,27.49
3,COc1cc(-c2ccc(Nc3ccccc3C(=O)O)c(OC)c2)ccc1Nc1ccccc1C(=O)O,8.14
4,Cn1c(=O)c2nc(CNc3ccc(C(=O)O)cc3)[nH]c2n(C)c1=O,-15.43
5,O=C(Nc1ccc(Nc2ccccc2)cc1)Nc1ccccc1Cl,29.15
6,O=C(/C=C/C(=O)N1CCc2ccccc2C1)N1CCc2ccccc2C1,-1.48
7,COC(=O)CC1(C(=O)OC)Nc2cc(Cl)c(Cl)cc2S(=O)(=O)N1O (configuration not stated),20.28
8,OCCCCc1nccc2c1[nH]c1ccccc12,-6.37
9,CCCc1nc(NC(=O)c2ccccc2)nc(NC(=O)c2ccccc2)n1,3
10,COc1cccc2c1C(CO)N1C(C#N)C3CC(C(=O)O)C(C1C2)N3C (configuration not stated),-11.34
11,CC1=CC(=O)C(/C(C)=N/c2ccccc2Cl)C(=O)O1 (configuration not stated),-12.96
12,O=C(c1cccnc1)c1cc(-c2ccccn2)c(=O)n2ccccc12,30.02
13,Sc1cnnc2ccccc12,-16.88
14,O=C(Nc1ccccc1-c1ccccc1)C(=O)Nc1ccccc1-c1ccccc1,-5.08
15,c1ccc(-c2nnc(-c3ccccc3)nn2)cc1,19.83
16,CCCCSc1[nH]cnc2nncc1-2,20.63
17,CCOC(=O)c1cc(-c2cccnc2)nc2c(Cl)cc(Cl)cc12,11.86
18,CC1=CC(C)(C)N=C(S)N1c1cccc2cc(S(=O)(=O)O)ccc12,-12.89
19,CSC(=NS(=O)(=O)c1ccccc1)NNC(=O)c1c(-c2c(Cl)cccc2Cl)noc1C,-8.64
20,O=C(O)/C(Cc1c[nH]nn1)=N\O,6.67
21,COC(=NC(C)C)NC(C)C,21.27
22,COc1ccc2c(c1)CCN1C2CCN2C(=O)CCC21 (configuration not stated),-5.59
23,CC1CC(C)(C)NC2(CCCC2)N1 (configuration not stated),23.49

row,Structure (SMILES),Inhibition [%]
1,CC1CO/C(=C2\C(=O)OCC2C)C1 (configuration not stated),14.61
2,COc1cccc(/C=C/c2nccc3ccccc23)c1OC,10.79
3,NC(=O)c1cc2c3ccccc3ccn2c1-c1ccccc1,5.42
4,COc1ccc2c(c1)C(=O)C1NC(=O)NC(=O)C1(Br)N2 (configuration not stated),17.46
5,CCCCSc1cc(O)nc(N)n1,31.81
6,CCOC(=O)C(=Cc1ccc(Br)cc1)C(=O)OCC,23.58
7,Nc1nc(SCc2ccccc2)sc1C(=O)N1CCCCC1,22.11
8,CC(=O)O[C@H]1CC[C@@]2(C)[C@@H](CC[C@@H]3[C@@H]2CC(=O)[C@@]2(C)[C@H]3C[C@@H]3CC(C)=CC(=O)[C@@H]32)C1,22.1
9,OCC1(CO)CC2(C1)CC(CO)(CO)C2,12.93
10,CC1(C)CCSC(/C=C/c2ccccc2)=N1,0.94
11,O=C(Nc1ccc(F)cc1)OCCOc1ccc(Br)cc1,14.37
12,COc1cc(NC(C)=O)c2ncccc2c1Br,19.59
13,CCOc1ccc(NC(=O)Nc2cc(C(C)C)ccc2C)cc1,-9.19
14,N#Cc1nnn2c1nc(N)c1c(Cl)cccc12,1.92
15,C(=N\n1cnnc1)/c1ccc2c(c1)CCC2,1.93
16,Cc1c2cnccc2c(C)c2c1c1ccccc1n2CCOC(=O)c1ccccc1,20.88
17,Cc1nc(C(N)=O)nc2ccccc12,14.29
18,N#C/N=C/N1CC=C(c2ccc(Cl)cc2)CC1,2
19,CCCCCCCC1(C)NC(=O)NC1=O (configuration not stated),8.41
20,CC(C)c1nc2c(=O)n(C)c(=O)n(C)c2[nH]1,16.66
21,O=C1c2cccc(Oc3ccccc3)c2C(=O)c2cccc(Oc3ccccc3)c21,13.08
22,CCOC(=O)Cc1csc2nc(-c3ccccc3)nn12,0.17
23,N=C(N)NS(=O)(=O)c1ccc(/N=C2/C(=O)Nc3ccccc32)cc1,27.83

row,Structure (SMILES),Inhibition [%]
1,C#CCSc1nc(-c2ccco2)n[nH]1,-2.43
2,CCOc1ccc(NC(=O)c2cc3ccccc3cc2O)cc1,0.55
3,CC1=Nc2ccccc2/C1=C\c1c(C)[nH]c2ccccc12,4.61
4,CN1CCC(n2[nH]c(-c3ccccc3)c(Cc3ccccc3)c2=O)CC1 [BENZPIPERYLON],18.57
5,O=C1NC(=S)S/C1=C\c1ccccc1C(=O)O,7.36
6,Oc1nc(S)ncc1Oc1ccc(Cl)cc1Cl,5.78
7,O=C(O)c1ccccc1-c1ccccc1C(=O)Nc1ccc2c(c1)nc(O)c1ccccc12,7.38
8,CN1CCN(C2=NCCO2)CC1,13.46
9,CC1(C)N=C(N)N=C(NCCCOc2ccc([N+](=O)[O-])cc2)N1.CCS(=O)(=O)O,21.41
10,COC(=O)c1ccc(Cn2cnc3c(Cl)ncnc32)cc1,-11.44
11,c1ccc2c(c1)Nc1ccncc1S2,-5.87
12,Cc1cc2c(c(C#N)c1C)NC=NC2C (configuration not stated),22.27
13,ClC(Cl)(Cl)C1=Nc2c(nnn2Cc2ccccc2)CN1,29.56
14,Cc1cc2c3ccccc3ncn2n1,6.43
15,CCOC(=O)c1c(C)nc(C)c(C(=O)OCC)c1-c1cccnc1,-6.77
16,CS(=O)(=O)O.Cc1cc2c(cc1[N+](=O)[O-])NC(CNC(C)C)CC2 (configuration not stated),22.01
17,C=CCNC(=O)C1COc2ccccc2O1 (configuration not stated),2.04
18,COc1ccccc1/C=C(\C#N)C(=O)O,9.79
19,O=C1CSCc2nc3ccccc3n21,23.81
20,Cc1ccc(-c2cc(C(=O)O)c3ccccc3n2)c(C)c1,-3.62
21,Clc1nnc(NC2CCCCC2)c(Cl)c1Cl,24.72
22,COC(=O)C(=Cc1ccccc1[N+](=O)[O-])C(=O)OC,11.44
23,Cc1nc2nc(C(F)(F)F)[nH]c2nc1C,-5.5

row,Structure (SMILES),Inhibition [%]
1,O=C1C2CC3N1CCC31c3ccccc3-n3c1c2ccc3=O (configuration not stated),7.29
2,COC(=O)Cc1[nH]c(S)nc1C(=O)OC,-22.44
3,Cn1ncc2c(Nc3ccc([N+](=O)[O-])cc3)nc(Cl)nc21,-8
4,COc1ccc(OC)c(NC(=O)c2cc3oc4ccccc4c3cc2O)c1,23.58
5,CC(C)(C)c1ccc(C(=O)Nc2ccc(S(N)(=O)=O)cc2)cc1,20.1
6,Nc1nc2cc([N+](=O)[O-])ccc2[nH]1,5.12
7,O=C(O)Cc1sc(O)nc1O,7.74
8,COC(=O)c1cc2c(n1S(=O)(=O)c1ccc(C)cc1)C(=O)C(=O)c1[nH]cc(C(=O)OCc3ccccc3)c1-2,11.56
9,O=C1CCCc2cc3c(cc21)CC1(C3)Cc2cc3c(cc2C1)C(=O)CCC3,16.02
10,O=c1cc(-c2ccccc2)oc2ccc(O)cc12 [6-HYDROXYFLAVONE],-16.45
11,CN(C)c1ccc(/C=N/NC(=O)c2cnc3ccccc3c2)cc1,22.63
12,CCOC(=O)C(C)c1c(C(=O)c2ccc(C)nc2)c2ccccc2n1C (configuration not stated),22.42
13,CC(=O)Nc1nc(C)c(CCC2OCCO2)c(O)n1,-6.6
14,S=C(SCc1cc(Cl)cc2c1OCOC2)N1CCSCC1,16.56
15,C=CCN1CCN(c2ccncc2S(=O)(=O)N2CCN(C)CC2)CC1,24.3
16,COc1cccc(OCC(O)CN2CCN(c3ccc(Cl)cc3)CC2)c1 (configuration not stated),3.43
17,CC(=O)Oc1ccc(OC(C)=O)c2c1CC(C)=C(C)C2,14.2
18,CCOc1nsc(OCC)n1,17.95
19,CCOC(=O)c1cc(-c2ccccc2)nc2ccc(C)cc12 [NEOCINCHOPHEN],-16.13
20,Cn1ncc2c(O)nc(N)nc21,19.07

# Reformatted: entries from further up.
row	Structure (SMILES)	Inhibition [%]
22	CCOC(=O)Cc1csc2nc(-c3ccccc3)nn12	0.17
23	N=C(N)NS(=O)(=O)c1ccc(/N=C2/C(=O)Nc3ccccc32)cc1	27.83

# Reference: ChEMBL document CHEMBL4296182, “CO-ADD screening of NIH NCI Diversity Set V”
